Source: patent US20220088053
Protein sequences can lack the tags named with them.

Biological target: T1, USB1 wild-type (Homo sapiens) (UniProt Q9BQ65)
T1 sequence: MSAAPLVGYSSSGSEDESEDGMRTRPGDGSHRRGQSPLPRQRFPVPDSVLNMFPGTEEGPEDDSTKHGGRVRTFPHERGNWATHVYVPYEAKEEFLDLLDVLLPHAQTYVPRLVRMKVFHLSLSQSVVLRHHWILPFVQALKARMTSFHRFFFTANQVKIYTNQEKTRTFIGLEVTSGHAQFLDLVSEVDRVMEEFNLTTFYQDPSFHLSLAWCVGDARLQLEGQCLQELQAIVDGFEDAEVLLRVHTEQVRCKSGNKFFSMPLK
Experiment: enzyme reaction in vitro
Conditions: removes single 3' A; 5 uM USB1, 1 uM RNA, 37 C, 20 mM Hepes pH 7.4, 100 mM NaCl, 1 mM EDTA, 1 mM TCEP; purified recombinant protein; protein details: His (pColdI vector, E. coli Rosetta2); label: 5'-FAM

Sequence: UCCCUGAGACCCUUUAACCUGUGA [miR125a-native]
- activity on this sequence: active
